Source: patent publication US20100247931A1, “TREATING SURFACES TO ENHANCE BIO-COMPATIBILITY” (priority 2001, published 2010)
At least one structure is not confirmed: it was looked up by name or label, or the drawing left a doubt.

Assay: Rapamycin loading in and release from DK09 coating on stainless steel plate
Format: physicochemical

With `CO[C@H]1C[C@@H]2CC[C@@H](C)[C@@](O)(O2)C(=O)C(=O)N2CCCC[C@H]2C(=O)O[C@H]([C@H](C)C[C@@H]2CC[C@@H](O)[C@H](OC)C2)CC(=O)[C@H](C)/C=C(\C)[C@@H](O)[C@@H](OC)C(=O)[C@H](C)C[C@H](C)/C=C/C=C/C=C/1C` [rapamycin] the “Drug present in coating” value (Example 13: 20 mg coating of poly(vinyl butyral-co-vinyl alcohol-co-vinyl acetate) with rapamycin on plate) was 13 llg and the “Release of drug from the coating into phosphate buffered saline solution” value (Example 13: DK09 coating with rapamycin, drug shown present by stripping in 2-propanol) was “no drug was released”.
